The results in this text go back to US6727285B1, “Use of D-arginine and/or L-arginine to protect the amino groups of biological substances from damage, inactivation, or modification by toxic carbonyls and/or dicarbonyls” (priority 1995, dated 2004).

This assay has as its system bovine serum albumin. Description: Blocking of methylglyoxal or glyoxal cross-linking (gel formation) of albumin, inventor's tests. It counts as biochemical. The settings on record: arginines: hydrochloride salts and free base forms.

For `NCCC[C@H](N)C(=O)O` [ornithine, reference compound], the “blocking of the cross-linking of albumin by methylglyoxal or glyoxal” value is reported as “do not block”.
